Patent US20140370037A1
Residue numbers refer to the chain shown, from its start. Results are given in words; binding and its absence hold for the method and conditions named. Some entries that bind do so weakly or less than the wild type. One block for each binder: values may come before it.

The chains behind the UniProt entries cited, without tags or fusion partners. Where a name states a change or a piece, a line headed by the entry shows the natural chain unless it says otherwise. Residues count along the entry.
UniProt O88516: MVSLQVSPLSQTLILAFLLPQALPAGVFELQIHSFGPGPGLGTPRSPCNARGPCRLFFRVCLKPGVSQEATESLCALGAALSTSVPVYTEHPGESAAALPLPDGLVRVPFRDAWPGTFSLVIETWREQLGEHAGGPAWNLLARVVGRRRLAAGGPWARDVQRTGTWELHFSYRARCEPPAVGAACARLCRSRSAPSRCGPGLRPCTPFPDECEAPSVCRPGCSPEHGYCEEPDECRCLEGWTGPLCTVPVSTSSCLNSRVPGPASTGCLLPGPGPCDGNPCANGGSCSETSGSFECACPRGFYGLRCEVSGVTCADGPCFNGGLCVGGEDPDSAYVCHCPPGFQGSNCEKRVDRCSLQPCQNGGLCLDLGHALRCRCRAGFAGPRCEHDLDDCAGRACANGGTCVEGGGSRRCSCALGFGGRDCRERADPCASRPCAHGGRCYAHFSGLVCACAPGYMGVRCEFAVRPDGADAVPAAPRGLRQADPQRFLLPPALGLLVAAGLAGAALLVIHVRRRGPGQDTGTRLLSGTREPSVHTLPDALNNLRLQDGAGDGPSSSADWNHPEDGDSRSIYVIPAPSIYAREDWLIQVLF
UniProt Q9NYJ7, residues 27-492: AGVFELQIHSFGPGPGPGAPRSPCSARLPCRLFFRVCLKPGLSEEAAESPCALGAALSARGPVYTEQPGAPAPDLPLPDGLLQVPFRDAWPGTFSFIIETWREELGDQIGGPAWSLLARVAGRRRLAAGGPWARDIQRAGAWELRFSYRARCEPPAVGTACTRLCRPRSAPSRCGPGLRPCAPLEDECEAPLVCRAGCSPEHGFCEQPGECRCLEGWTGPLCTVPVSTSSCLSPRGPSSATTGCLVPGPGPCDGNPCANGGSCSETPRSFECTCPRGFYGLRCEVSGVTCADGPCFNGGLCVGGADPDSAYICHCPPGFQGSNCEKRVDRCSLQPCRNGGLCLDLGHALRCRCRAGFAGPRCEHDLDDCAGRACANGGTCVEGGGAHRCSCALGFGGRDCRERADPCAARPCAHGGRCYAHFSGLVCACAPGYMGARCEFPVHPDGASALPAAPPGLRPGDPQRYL

Legend:
[1] = target: murine DLL3 on 293 cells (mouse) (UniProt O88516); assay: flow cytometry on h293-mDLL3 cells
[2] = target: human DLL3 antigen (human) (UniProt Q9NYJ7); assay: ELISA or flow cytometry screen
[3] = target: human DLL3 antigen (human) (UniProt Q9NYJ7); assay: SPR, Biacore 2000, human DLL3 antigen
[4] = target: murine DLL3 on 293 cells (mouse) (UniProt O88516); assay: flow cytometry on 293-mDLL3 cells; no staining of parental 293 cells

B1: SC16.15 (antibody, V domains shown)
VH: QVQLQQSGAELAKPGASVKMSCKASGYTFTRYWIHWIKQRPGQGLEWIGYINPTTVYTEFNQNFKDKATLTADKSSTTASMQLSSLTSEDSAVYYCARGGSNFFDYWGQGTTLTVSS
VL: DIQMTQSPASLAASVGETVAITCRASENIYYNLAWYQQKQGKSPQLLIYTANSLEDGVPSRFSGSGSGTQYSLKINSMQPEDSATYFCKQAYDVPPTFGGGTKLEIK
- binding [1]: binds

B4: hSC16.25 (antibody, V domains shown)
VL: EIVLTQSPDFQSVTPKEKVTITCSASSSVSYMHWYQQKPDQSPKLLIKDSSKLASGVPSRFSGSGSGTDFTLTINSLEAEDAATYYCQQWSSNPLTFGQGTKLEIK
V domain: QITLKESGPTLVKPTQTLTLTCTFSGFSLSTSGMGVGWIRQPPGKALEWLTDIWWDDNKYYNPSLKSRLTITKDTSKNQVVLTMTNMDPVDTATYYCARRVNYYYDPYYAMDYWGQGTTLVTVS
- binding [3]: binds

B5: SC16.34 (antibody, V domains shown)
VH: QIQLVQSGPELKRPGETVKISCKASGYTFTNYGMNWVKQAPGKGLKWMGWINTYTGDPTYADDFKGRFAFSLETSASTAYLQINNLKNEDTATYFCARIGGNSPSDYWGQGTSLTVSS
VL: SIVMTQTPKFLLVSAGDRVTITCKASQSVSNDVAWYQQKPGQSPKLLIYYASNRYSGVPDRFTGSGYGTDFTFTISTVQAEDLAVYFCQQDYSSPWTFGGGTKLEIK
- binding [1]: binds

B8: SC16.131 (antibody, V domains shown)
VH: QVQLKESGPGLVAPSQSLSITCTVSGFSLTNYGVVHWVRQPPGKGLEWLGVIWAGGITNYNSALMSRLSISEDNSKSQVFLKMNSLQTDDTAMYYCARNLGPYAMDYWGQGTSVTVSS
VL: DIQMNQSPSSLSASLGDTITITCHVSQNINVWLSWYQQKPGNIPKLLIQKASNLHTGVPSRFSGSGSGTGFTLTISSLQPEDIATYYCQQGQSYPFTFGSGTKLEIK
- binding [2]: binds

B9: SC16.129 (antibody, V domains shown)
VH: QVQLKESGPGLVAPSQSLSITCTVSSGFSLTDYGVSWIRQPPGKGLEWLGVIWGGGSTYYNSALKSRLSISKDNSKSQVFLELNSLQTDDTAIYYCAKHYGHYAAYWGQGTLVTVSA
VL: DIQMTQSPASQSASLGESVTITCLASQTIGTWLAWYQQKPGKSPQLLIYAATSLADGVPSRFSGSGSGTKFSFKISSLQAEDFVSYYCQQLYSTPYTFGGGTKLEIKR
- binding [2]: binds

More lines, now with the values ahead:

- binding [2]: binds
B2: SC16.116 (antibody, V domains shown)
VH: QVQLKQSGPGRVQPSQSLSITCTVSGFSLTSNGVVHWVRQSPGKGLEWLGVLWSGGSTDYNAAFISRLSISKDNYKSQVFFKMNSLQANDTAIYYCARNNNRYGAMDYWGQGTSVTVSS
VL: DIVMTQSPSSLTVTAGEKVTMSCTSSQSLLTSGNQKNYLTWYQQKPGQPPKLLIYWASTRESGVPDRFTGSGSGTDFTLTISSLQAEDLAVYYCQNDYSLTFGAGTKLELK

- binding [2]: binds
B3: SC16.103 (antibody, V domains shown)
VH: QVTLKESGPGILKPSQTLSLTCSFSGFSLSTSGMIGWIRQPSGKGLEWLAHIWWDDDKYYNPSLKSQLTISKDSSRNQVFLKITSVDTADTATYYCARRGTAYYFDYWGQGTTLTVSS
VL: DIVLTQSPASLAVSLGQRATISCRASKSVSTSGYSYMHWYQQKPGQPPKLLIYLASNLESGVPARFSGSGSGTDFTLNIHPVEEEDAATYYCQHSRELPLTFGAGTKLELK

- binding [4]: binds
- binding [1]: binds
B6: SC16.56 (antibody, V domains shown)
VH: B5 VH with R13K, G49A, D57E, Y80S, N84I, G101D, N102S, S113T
VL: B5 VL with A34V, S56T, T63A, T72S, S93T, K107R

- binding [1]: binds
B7: SC16.8 (antibody, V domains shown)
VH: QAQLQQSGAELVRPGTSVKVSCKASGYAFTNYLIEWVKQRPGQGLEWIGVINPGTGGTNYNENFKGKATLTADKSSSTAYMQLSSLTSDDSAVYFCARSPYDYHEGAMDYWGQGTSVTVSS
VL: EIQMTQSPSSMSASLGDRITITCQATQDIVKNLNWYQQKPGKPPSFLIYYAIELAEGVPSRFSGSGSGSDYSLTISNLESEDFADYYCLQFYEFPFTFGAGTKLELK

- binding [1]: binds
B10: SC16.4 (antibody, V domains shown)
VH: QIQLVQSGPELKKPGETVKISCKASGYTFTDYSMHWVKQAPGKGLKWMGWINTETGEPGYADDFKGRFAFSLETSASTAYLQINNLKNEDTATYFCARYDGYAMDYWGQGTSVTVSS
VL: DIQMTQTTSSLSASLGDRVTISCRASQDISNYLNWYQQKPDGTVKLLIYYTSRLHSGVPSRFSGSGSGTDYSLTISNLELEDIATYFCQQGDMLPWTFGGGTKLEIK
